# At least one compound was matched to its structure with a doubt left.
# Tested on: mammary tumors induced by MMTV-ErbB2
# Experiment: Palbociclib in autochthonous MMTV-ErbB2 mammary tumors (immunofluorescence)
# Format: in vivo, mouse
# Conditions: 150 mg/kg daily gavage, 6 weeks
compound,measurement,value
CC(=O)c1c(C)c2cnc(Nc3ccc(N4CCNCC4)cn3)nc2n(C2CCCC2)c1=O [palbociclib],PD-L1 expression in tumors,upregulation of PD-L1
same,absolute number of CD3+ TILs,decrease in absolute number of CD3+ TILs

# Source: US20200377599A1, “COMPOSITIONS AND METHODS FOR TREATING CANCER” (BETH ISRAEL DEACONESS MEDICAL CENTER, INC., priority 2017, published 2020)
